According to doi:10.1101/2024.09.03.610971:
No constants are given. Whether binding was seen depends on the method and setting. Where a sequence is shown, tags or fusion partners need not be part of it.

Protein sequences, listed by entry. Tags and fused reporters are not part of them. Lines headed by an entry give the natural chain unless they say otherwise; changes in a name come on top.
UniProt Q8C0R0: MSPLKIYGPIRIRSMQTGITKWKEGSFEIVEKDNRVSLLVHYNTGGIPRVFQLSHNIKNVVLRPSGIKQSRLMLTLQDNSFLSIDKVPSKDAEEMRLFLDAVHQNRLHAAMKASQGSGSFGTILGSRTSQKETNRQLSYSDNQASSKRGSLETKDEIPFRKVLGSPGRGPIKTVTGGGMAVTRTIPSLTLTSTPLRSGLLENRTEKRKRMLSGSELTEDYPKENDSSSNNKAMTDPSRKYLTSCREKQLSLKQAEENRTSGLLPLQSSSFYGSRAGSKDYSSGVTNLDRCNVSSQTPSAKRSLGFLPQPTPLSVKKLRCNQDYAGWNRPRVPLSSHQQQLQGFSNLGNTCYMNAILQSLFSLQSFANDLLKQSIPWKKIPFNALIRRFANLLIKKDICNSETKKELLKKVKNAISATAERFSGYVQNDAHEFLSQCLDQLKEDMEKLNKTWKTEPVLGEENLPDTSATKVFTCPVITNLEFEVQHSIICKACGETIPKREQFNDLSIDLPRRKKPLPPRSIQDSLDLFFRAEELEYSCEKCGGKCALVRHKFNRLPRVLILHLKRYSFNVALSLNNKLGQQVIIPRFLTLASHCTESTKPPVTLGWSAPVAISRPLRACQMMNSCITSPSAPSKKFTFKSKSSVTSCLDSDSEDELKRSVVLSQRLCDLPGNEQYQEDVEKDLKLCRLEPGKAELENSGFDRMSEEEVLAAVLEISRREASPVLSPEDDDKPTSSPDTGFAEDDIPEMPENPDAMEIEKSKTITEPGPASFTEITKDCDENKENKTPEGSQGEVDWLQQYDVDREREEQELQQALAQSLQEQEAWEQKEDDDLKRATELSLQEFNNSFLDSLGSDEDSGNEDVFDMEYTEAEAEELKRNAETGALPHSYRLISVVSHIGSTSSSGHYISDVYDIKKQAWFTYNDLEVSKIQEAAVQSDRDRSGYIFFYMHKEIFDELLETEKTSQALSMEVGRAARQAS

Biological target: T1, mouse CDC45, yeast two-hybrid fusion (mouse) (UniProt Q9Z1X9)
T1 sequence: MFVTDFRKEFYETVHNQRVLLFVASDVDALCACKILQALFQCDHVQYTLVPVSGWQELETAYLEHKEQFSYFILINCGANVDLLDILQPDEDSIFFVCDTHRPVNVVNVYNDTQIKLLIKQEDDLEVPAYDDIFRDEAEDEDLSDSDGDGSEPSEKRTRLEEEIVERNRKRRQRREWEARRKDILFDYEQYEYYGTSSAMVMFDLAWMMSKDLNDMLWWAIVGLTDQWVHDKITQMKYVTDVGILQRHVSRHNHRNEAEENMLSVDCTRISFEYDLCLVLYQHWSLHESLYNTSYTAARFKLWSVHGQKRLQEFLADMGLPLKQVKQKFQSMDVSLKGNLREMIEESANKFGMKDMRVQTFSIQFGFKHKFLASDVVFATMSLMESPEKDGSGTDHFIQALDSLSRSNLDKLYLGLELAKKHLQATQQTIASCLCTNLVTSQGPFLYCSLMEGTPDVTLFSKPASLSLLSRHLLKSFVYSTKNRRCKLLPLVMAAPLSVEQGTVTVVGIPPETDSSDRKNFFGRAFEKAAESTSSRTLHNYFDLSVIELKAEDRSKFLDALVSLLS
Assay: two-hybrid

binding: no binding
Substance: USP37 1-119 with the 10A mutations, yeast two-hybrid fusion (from UniProt Q8C0R0) (domain or fragment)
